Data published in patent US20200323950A1 (priority 2017, published 2020).

Experiment: general procedure: Fmoc solid-phase peptide synthesis; 2-chlorotrityl chloride resin (functionalized with hydrazine or Fmoc-Cys(Trt)-amino-alcohol); TentaGel-MB-RAM-resin; HCTU/DIPEA
Conditions: whole synthesis, overall

“(H-Chex-Arg-Pro-Asp-Lys-Pro-Arg-Pro-Tyr-Leu-Pro-Arg-Pro-Arg-Pro-Pro-Arg-Pro-Val-Arg)2-Dab” gave an isolated yield of 30%.
